Values from PubChem BioAssay AID1259266 (Sanger Institute, 2017).
Here is a random part of 794 reagents. Over the whole deposit, 16 (2%) got an active call. 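Calls reflect knock-down alone, not drug synergy; viability seems capped at 1 and z-scores at 0.585.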 Unmarked entries are inactive. Not all columns of the deposit are shown. The record does not give: the amount of reagent, the time to read-out.

Screen: 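Search kinases and colorectal cancer genes for essential genes and drug synergy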 (primary screen)
System: LS123 human colorectal cancer cells
Reagent: siRNA pool against human genes
Conditions: anchor drugs BYL719 (1 µM), cetuximab (5 µg/ml) or trametinib (10 nM), each chosen to barely slow growth alone; DMSO vehicle as the drug-free arm
Measured: 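Viability relative to non-targeting control pools, replicate mean, with a robust z-score for knock-down alone and synergy scores for each anchor drug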
Direction: robust z-score, knock-down alone: higher = more cells surviving after knock-down; viability, knock-down alone: higher = more viable cells; synergy score with trametinib: higher = stronger synthetic lethality with drug
Active means: 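a knock-down counts as essential if its z-score without drug is under -3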
Meaning of the calls: active = essential (knock-down alone cuts viability); inactive = no change

Gene	robust z-score, knock-down alone	viability, knock-down alone (fraction of control)	synergy score with trametinib
TRIB1 (GeneID 10221)	-1.42	0.881	-0.128
CDK2 (GeneID 1017)	0.585	1	-0.111
NR4A2 (GeneID 4929)	-1.4	0.882	0.0503
TRIO (GeneID 7204)	0.585	1	-0.0336
DGKA (GeneID 1606)	0.506	0.995	-0.0642
PBK (GeneID 55872)	0.3	0.983	-0.113
TRIB2 (GeneID 28951)	-0.782	0.919	0.118
NEK9 (GeneID 91754)	0.456	0.992	-0.0473
CAMK4 (GeneID 814)	0.585	1	-0.178
HUS1 (GeneID 3364)	0.585	1	-0.142
TSSK1B (GeneID 83942)	0.585	1	-0.168
CSNK1G1 (GeneID 53944)	0.00806	0.966	-0.0483
NTRK3 (GeneID 4916)	0.585	1	-0.186
RPS6KL1 (GeneID 83694)	-1	0.906	0.01
OBSCN (GeneID 84033)	0.347	0.986	-0.191
OXSR1 (GeneID 9943)	0.585	1	-0.00718
DCLK2 (GeneID 166614)	-0.174	0.955	-0.128
ROR1 (GeneID 4919)	0.585	1	-0.0808
CERK (GeneID 64781)	0.585	1	-0.0086
NME5 (GeneID 8382)	0.585	1	-0.12
CSK (GeneID 1445)	0.585	1	-0.131
PRKCQ (GeneID 5588)	0.585	1	0.0256

Continued; the last 6 above are carried over.
Gene	robust z-score, knock-down alone	viability, knock-down alone (fraction of control)	synergy score with trametinib
DCLK2 (GeneID 166614)	-0.174	0.955	-0.128
ROR1 (GeneID 4919)	0.585	1	-0.0808
CERK (GeneID 64781)	0.585	1	-0.0086
NME5 (GeneID 8382)	0.585	1	-0.12
CSK (GeneID 1445)	0.585	1	-0.131
PRKCQ (GeneID 5588)	0.585	1	0.0256
ABL2 (GeneID 27)	0.585	1	-0.105
ROS1 (GeneID 6098)	-1.4	0.882	-0.0544
FCSK (GeneID 197258)	-0.519	0.934	0.0325
MOS (GeneID 4342)	-0.521	0.934	-0.0667
KHK (GeneID 3795)	-1.5	0.876	-0.177
VRK3 (GeneID 51231)	0.585	1	-0.0661
WIPF1 (GeneID 7456)	-2.4	0.823	0.0369
AMHR2 (GeneID 269)	0.31	0.984	-0.0655
PRKCSH (GeneID 5589)	0.585	1	-0.0669
MAPK8 (GeneID 5599)	0.585	1	-0.186
PASK (GeneID 23178)	0.585	1	-0.0324
STK36 (GeneID 27148)	0.585	1	0.109
STK32C (GeneID 282974)	0.585	1	-0.128
PIK3CA (GeneID 5290)	0.585	1	-0.0992
NUCKS1 (GeneID 64710)	0.585	1	-0.0555
WT1 (GeneID 7490)	0.585	1	-0.119
CSF1R (GeneID 1436)	-0.774	0.919	0.0318
CHEK1 (GeneID 1111)	-5.33 (active)	0.649	-0.284
PIK3CG (GeneID 5294)	0.585	1	0.084
SMAD2 (GeneID 4087)	-0.655	0.926	-0.0738
